Results published in the supplement of paper PMC10849652.
The list shows a part of the results.

Chains of the proteins cited; added tags and fusions are not shown. Lines headed by an entry give the natural chain unless they say otherwise; changes in a name come on top.
UniProt Q6ZN54: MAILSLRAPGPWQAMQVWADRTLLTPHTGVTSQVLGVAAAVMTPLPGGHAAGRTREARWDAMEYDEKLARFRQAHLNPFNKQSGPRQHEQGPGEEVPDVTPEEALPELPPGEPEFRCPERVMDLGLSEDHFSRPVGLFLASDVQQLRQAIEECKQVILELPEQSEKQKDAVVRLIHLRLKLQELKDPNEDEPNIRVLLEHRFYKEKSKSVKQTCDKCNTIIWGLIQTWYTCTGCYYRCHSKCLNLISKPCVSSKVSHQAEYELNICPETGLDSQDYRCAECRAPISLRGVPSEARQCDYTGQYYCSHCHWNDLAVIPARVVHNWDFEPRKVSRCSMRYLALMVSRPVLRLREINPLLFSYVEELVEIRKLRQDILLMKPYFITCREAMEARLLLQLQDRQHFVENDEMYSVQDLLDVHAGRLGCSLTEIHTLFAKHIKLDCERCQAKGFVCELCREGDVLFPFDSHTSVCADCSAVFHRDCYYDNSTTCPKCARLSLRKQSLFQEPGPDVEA
UniProt Q9H4E7, whole entry, looked up: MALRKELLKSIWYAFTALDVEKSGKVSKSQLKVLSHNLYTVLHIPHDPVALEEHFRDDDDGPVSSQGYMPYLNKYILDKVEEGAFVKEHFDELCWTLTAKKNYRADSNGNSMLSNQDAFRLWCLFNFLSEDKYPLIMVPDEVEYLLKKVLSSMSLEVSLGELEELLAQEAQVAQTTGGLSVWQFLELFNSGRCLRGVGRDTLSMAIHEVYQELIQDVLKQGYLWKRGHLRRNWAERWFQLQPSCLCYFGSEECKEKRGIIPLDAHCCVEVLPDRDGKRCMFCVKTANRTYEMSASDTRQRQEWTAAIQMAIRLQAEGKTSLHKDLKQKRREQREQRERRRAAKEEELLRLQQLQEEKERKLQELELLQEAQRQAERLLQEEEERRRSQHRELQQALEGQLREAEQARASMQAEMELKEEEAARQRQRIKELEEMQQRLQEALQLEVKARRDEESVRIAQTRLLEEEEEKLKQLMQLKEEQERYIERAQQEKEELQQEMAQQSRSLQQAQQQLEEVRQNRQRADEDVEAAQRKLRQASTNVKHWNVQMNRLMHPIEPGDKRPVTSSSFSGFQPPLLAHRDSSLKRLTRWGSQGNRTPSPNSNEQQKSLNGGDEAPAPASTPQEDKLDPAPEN
UniProt Q8NDZ4: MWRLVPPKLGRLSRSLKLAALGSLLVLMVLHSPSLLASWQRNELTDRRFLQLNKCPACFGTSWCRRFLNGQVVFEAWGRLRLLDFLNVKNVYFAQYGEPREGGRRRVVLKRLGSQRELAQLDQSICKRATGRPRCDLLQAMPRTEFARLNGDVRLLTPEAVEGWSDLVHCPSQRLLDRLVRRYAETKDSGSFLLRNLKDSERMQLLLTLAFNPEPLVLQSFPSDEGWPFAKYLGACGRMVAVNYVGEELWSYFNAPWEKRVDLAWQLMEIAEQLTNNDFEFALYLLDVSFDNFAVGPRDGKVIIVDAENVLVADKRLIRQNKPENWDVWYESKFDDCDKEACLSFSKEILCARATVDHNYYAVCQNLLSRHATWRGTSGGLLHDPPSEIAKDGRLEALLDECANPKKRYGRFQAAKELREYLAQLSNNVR
UniProt Q08345: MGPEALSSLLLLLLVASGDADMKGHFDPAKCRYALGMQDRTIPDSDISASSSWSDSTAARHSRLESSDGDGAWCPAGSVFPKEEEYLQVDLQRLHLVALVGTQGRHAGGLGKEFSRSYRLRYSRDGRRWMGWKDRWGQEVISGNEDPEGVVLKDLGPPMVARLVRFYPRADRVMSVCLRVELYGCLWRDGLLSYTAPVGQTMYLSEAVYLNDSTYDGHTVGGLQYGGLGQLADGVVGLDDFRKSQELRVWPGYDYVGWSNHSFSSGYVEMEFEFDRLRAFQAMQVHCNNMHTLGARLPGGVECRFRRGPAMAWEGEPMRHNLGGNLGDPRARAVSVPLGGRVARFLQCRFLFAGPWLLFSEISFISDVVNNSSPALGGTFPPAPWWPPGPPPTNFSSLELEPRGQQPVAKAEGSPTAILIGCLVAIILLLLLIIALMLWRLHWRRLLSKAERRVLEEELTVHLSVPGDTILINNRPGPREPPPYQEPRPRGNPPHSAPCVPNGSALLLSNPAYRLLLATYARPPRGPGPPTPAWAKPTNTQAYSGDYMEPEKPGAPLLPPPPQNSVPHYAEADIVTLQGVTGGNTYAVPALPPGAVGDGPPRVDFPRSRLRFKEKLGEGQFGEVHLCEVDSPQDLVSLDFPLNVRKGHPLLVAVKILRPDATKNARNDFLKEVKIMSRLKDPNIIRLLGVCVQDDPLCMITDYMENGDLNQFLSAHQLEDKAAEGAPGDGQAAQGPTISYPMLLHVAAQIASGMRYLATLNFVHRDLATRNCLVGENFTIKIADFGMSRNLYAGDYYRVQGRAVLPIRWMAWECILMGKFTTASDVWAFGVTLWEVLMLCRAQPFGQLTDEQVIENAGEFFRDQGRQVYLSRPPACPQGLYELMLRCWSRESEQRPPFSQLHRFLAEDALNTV
UniProt Q9GZP9: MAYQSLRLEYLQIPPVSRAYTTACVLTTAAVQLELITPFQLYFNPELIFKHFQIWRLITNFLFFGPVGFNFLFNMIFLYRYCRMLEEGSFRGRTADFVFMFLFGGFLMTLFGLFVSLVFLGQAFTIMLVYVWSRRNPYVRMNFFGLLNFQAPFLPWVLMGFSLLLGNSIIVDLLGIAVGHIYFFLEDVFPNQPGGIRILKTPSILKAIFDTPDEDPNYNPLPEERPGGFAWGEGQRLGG
UniProt Q92466: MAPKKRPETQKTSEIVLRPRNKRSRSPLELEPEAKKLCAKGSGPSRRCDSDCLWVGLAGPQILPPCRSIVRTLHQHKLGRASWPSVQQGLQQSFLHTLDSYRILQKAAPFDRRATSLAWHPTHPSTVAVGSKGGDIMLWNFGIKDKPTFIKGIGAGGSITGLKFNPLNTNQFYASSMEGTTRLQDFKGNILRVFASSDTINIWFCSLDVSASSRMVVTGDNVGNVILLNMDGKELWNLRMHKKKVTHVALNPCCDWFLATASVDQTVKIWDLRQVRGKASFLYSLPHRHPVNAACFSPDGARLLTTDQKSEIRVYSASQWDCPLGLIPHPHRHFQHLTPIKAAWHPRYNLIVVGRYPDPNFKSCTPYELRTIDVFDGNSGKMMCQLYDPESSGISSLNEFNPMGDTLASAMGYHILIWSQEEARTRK
UniProt Q9Y222: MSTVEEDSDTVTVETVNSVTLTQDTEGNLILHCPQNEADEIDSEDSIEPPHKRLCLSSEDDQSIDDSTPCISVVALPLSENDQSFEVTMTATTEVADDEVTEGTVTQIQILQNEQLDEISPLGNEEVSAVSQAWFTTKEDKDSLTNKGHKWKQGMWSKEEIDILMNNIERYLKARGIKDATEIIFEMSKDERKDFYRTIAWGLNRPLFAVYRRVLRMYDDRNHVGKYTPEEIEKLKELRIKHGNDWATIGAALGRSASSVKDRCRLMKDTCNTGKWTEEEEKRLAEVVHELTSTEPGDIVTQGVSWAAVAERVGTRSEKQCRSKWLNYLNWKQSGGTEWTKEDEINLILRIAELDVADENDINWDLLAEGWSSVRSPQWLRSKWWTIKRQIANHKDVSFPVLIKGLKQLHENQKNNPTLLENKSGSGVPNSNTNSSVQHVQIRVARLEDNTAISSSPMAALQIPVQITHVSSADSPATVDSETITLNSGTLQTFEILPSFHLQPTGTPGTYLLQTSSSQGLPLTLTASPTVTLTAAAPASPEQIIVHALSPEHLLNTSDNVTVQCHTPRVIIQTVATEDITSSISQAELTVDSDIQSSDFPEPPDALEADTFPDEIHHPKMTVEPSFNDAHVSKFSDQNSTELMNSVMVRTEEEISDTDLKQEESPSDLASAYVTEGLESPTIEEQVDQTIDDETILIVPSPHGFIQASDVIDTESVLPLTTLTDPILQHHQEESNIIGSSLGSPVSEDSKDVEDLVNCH
UniProt Q8N5I4: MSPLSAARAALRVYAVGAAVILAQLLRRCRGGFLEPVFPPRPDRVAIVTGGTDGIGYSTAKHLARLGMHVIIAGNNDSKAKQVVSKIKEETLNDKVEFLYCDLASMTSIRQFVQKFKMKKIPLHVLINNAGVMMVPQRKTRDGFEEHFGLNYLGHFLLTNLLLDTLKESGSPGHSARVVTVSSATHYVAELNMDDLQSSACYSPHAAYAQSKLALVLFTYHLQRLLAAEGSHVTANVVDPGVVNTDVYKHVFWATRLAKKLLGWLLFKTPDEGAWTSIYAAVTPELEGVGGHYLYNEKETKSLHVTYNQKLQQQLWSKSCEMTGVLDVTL
UniProt Q92796: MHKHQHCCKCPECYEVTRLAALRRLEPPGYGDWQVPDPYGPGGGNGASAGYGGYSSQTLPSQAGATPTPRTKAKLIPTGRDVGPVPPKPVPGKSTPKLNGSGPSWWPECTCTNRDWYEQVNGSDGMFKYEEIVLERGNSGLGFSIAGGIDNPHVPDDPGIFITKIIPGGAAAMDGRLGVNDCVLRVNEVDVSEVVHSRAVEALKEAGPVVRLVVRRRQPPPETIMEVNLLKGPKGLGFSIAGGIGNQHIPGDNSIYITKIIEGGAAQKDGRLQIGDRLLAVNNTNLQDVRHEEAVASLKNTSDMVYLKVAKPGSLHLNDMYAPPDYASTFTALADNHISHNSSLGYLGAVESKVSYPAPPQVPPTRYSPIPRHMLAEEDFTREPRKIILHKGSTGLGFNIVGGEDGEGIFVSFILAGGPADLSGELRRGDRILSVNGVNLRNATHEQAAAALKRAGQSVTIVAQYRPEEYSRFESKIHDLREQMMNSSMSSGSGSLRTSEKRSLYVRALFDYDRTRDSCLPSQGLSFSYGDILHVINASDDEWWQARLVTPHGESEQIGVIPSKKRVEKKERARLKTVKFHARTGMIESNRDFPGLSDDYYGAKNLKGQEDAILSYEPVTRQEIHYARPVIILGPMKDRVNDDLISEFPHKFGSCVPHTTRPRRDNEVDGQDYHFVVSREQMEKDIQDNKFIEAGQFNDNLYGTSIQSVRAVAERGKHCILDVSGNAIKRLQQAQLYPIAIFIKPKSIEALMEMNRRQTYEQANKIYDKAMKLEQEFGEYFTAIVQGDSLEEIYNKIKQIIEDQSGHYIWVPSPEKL
UniProt Q9UBT3: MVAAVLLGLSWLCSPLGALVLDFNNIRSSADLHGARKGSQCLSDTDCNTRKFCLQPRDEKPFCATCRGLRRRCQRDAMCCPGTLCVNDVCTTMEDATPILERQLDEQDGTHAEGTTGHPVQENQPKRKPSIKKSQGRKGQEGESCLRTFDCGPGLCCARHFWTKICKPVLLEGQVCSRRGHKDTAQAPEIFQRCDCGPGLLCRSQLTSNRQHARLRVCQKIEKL
UniProt Q9Y2R4: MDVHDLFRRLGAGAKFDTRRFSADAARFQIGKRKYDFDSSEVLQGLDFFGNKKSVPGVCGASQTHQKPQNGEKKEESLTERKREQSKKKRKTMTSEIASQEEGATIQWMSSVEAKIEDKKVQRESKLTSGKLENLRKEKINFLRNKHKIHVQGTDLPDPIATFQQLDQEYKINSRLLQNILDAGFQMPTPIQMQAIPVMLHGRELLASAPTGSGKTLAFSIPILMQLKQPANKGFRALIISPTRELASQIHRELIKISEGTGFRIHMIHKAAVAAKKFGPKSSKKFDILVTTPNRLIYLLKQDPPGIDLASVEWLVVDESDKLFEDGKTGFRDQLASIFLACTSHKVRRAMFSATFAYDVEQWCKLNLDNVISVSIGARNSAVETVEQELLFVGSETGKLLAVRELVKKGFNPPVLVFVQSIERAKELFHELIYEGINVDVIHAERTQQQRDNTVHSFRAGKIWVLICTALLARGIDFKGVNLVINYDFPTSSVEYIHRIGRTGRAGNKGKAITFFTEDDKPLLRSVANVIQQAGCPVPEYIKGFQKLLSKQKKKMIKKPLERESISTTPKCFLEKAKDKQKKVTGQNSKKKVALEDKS
UniProt O95057: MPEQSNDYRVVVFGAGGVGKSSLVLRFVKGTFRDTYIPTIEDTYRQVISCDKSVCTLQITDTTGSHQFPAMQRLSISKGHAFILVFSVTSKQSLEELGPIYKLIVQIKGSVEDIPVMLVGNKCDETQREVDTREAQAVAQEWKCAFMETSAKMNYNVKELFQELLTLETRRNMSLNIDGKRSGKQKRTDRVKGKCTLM
UniProt Q08495: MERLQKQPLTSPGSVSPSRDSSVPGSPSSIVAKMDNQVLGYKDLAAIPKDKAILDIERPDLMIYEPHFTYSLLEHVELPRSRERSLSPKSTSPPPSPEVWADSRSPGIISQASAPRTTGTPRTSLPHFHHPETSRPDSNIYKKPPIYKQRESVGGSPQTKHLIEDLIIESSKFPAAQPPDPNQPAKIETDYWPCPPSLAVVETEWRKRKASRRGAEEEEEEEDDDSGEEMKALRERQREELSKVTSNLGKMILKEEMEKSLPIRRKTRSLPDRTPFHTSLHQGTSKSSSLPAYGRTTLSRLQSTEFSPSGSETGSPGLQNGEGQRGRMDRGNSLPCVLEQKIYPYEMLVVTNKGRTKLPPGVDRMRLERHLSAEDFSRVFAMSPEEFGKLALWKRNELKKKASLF

What was measured:
Test in all cases: log2 fold change, soluble protein after heating vs DMSO (PISA); higher = thermal stabilisation; K562 cells, 10 uM, 30 min; active = over 0.2 and 3.5 SD of the protein, either way, in both replicates (recomputed)
volasertib = compound: CC[C@@H]1C(=O)N(C)c2cnc(Nc3ccc(C(=O)N[C@H]4CC[C@H](N5CCN(CC6CC6)CC5)CC4)cc3OC)nc2N1C(C)C [volasertib]
How it was run: (§1)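 Soluble protein was defined as the supernatant after 21,000xg for 90 min. It came from K562 cells at 2×10^6 cells/mL given 10 μM compound for 30 min, heated in aliquots for 3 min across 48°C-58°C, pooled, and extracted in PBS with 0.5% NP-40 at 4°C, and was quantified by TMTpro 16plex LC-MS/MS with equalised channel sums. Thermal stability against control samples, from duplicates, is reported as log2 fold change.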

[1] = compound: CCn1c(C(=O)N(C2CC2)C2CC2)cc2c3c(ncn3C)c(Nc3cc(C)n(C)n3)nc21
How it was run: as §1

[2] = compound: CN(C)CC(=O)Nc1ccc2[nH]c(=O)c3ccccc3c2c1
How it was run: as §1

rosiglitazone = compound: CN(CCOC1=CC=C(C=C1)C[C@H]2C(=O)NC(=O)S2)C3=CC=CC=N3 (racemic) [rosiglitazone]
How it was run: as §1

[3] = compound: CNC(=O)C1=CC=CC=C1NC2=NC(=NC=C2Cl)NC3=C(C=C(C=C3)N4CCOCC4)OC
How it was run: as §1

defactinib = compound: CNC(=O)c1ccc(Nc2ncc(C(F)(F)F)c(NCc3nccnc3N(C)S(C)(=O)=O)n2)cc1 [defactinib]
How it was run: as §1

[4] = compound: COC(=O)[C@H](CCSC)NC(=O)C1=C(C=C(C=C1)NC[C@H](CS)N)C2=CC=CC=C2
How it was run: as §1

[5] = compound: CC[C@H](C)N1C=C(C2=C(C=C(C=C21)C3=CN=C(C=C3)N4CCNCC4)C(=O)NCC5=C(C=C(NC5=O)C)C)C
How it was run: as §1

epoxomicin = compound: CC[C@H](C)[C@@H](C(=O)N[C@@H]([C@@H](C)O)C(=O)N[C@@H](CC(C)C)C(=O)[C@]1(CO1)C)NC(=O)[C@H]([C@@H](C)CC)N(C)C(=O)C [epoxomicin]
How it was run: as §1

[6] = compound: CCn1cc(-c2ccnc3[nH]c(-c4cccc(CN(C)C)c4)cc23)c(-c2ccc(NC(=O)N(C)C)cc2)n1
How it was run: as §1

[7] = compound: CN1C2=C(C3=C1C(=O)N(N=C3)CC4=CC(=CC=C4)N)SC(=C2)S(=O)C
How it was run: as §1

[8] = compound: CN1CCC(CNc2ccc3ncc(-c4cccc(OC(F)(F)F)c4)n3n2)CC1
How it was run: as §1

saracatinib = compound: CN1CCN(CCOc2cc(OC3CCOCC3)c3c(Nc4c(Cl)ccc5c4OCO5)ncnc3c2)CC1 [saracatinib]
How it was run: as §1

sotrastaurin = compound: CN1CCN(c2nc(C3=C(c4c[nH]c5ccccc45)C(=O)NC3=O)c3ccccc3n2)CC1 [sotrastaurin]
How it was run: as §1

alvocidib = compound: CN1CC[C@H](c2c(O)cc(O)c3c(=O)cc(-c4ccccc4Cl)oc23)[C@H](O)C1 [alvocidib]
How it was run: as §1

Tubastatin A = compound: CN1CCc2c(c3ccccc3n2Cc2ccc(C(=O)NO)cc2)C1 [Tubastatin A]
How it was run: as §1

[9] = compound: CNc1nc(-c2ccc3c(N)n[nH]c3c2)cc(N2C[C@@H](C(=O)NC3CCCCC3)CC[C@H]2C)n1
How it was run: as §1

[10] = compound: CC[C@@H]1C(=O)N(C)c2cnc(Nc3ccc(C(=O)NC4CCN(C)CC4)cc3OC)nc2N1C1CCCC1
How it was run: as §1

rucaparib = compound: CNCc1ccc(-c2[nH]c3cc(F)cc4c3c2CCNC4=O)cc1 [rucaparib]
How it was run: as §1

encorafenib = compound: COC(=O)N[C@@H](C)CNc1nccc(-c2cn(C(C)C)nc2-c2cc(Cl)cc(NS(C)(=O)=O)c2F)n1 [encorafenib]
How it was run: as §1

Measured: log2 fold change

DEF8 (UniProt Q6ZN54)
inactive: volasertib -0.201 | [1] 0.179 | [2] 0.024 | rosiglitazone -0.193 | [3] 0.167 | defactinib -0.023 | [4] 0.042

DENND4B (UniProt O75064)
inactive: volasertib 0.034 | [5] 0.106 | epoxomicin -0.028 | [1] -0.059 | [6] 0.064 | [2] 0.001 | rosiglitazone -0.148 | [7] -0.04 | [8] -0.097 | saracatinib 0.079 | sotrastaurin -0.074 | alvocidib -0.042 | Tubastatin A 0.01 | [3] -0.017 | defactinib -0.053 | [9] 0 | [4] -0.013

DEF6 (UniProt Q9H4E7)
inactive: epoxomicin -0.131 | alvocidib 0.223 | Tubastatin A -0.004

DDX47 (UniProt Q9H0S4)
inactive: [5] 0.05 | epoxomicin -0.241 | [2] 0.124 | rosiglitazone -0.209 | [7] 0.23 | saracatinib -0.168 | sotrastaurin -0.071 | alvocidib 0.455 | defactinib -0.066 | [9] 0.177 | [4] 0.062

DDX55 (UniProt Q8NHQ9)
inactive: [10] -0.088 | [2] 0.08 | rosiglitazone -0.042 | sotrastaurin -0.339 | Tubastatin A 0.157 | defactinib 0.181 | rucaparib 0.117 | encorafenib 0.003 | [4] -0.014

DIPK2A (UniProt Q8NDZ4)
inactive: [5] 0.08 | [1] 0.026 | [2] 0.012 | rosiglitazone 0.163 | [7] -0.021 | saracatinib 0.111 | sotrastaurin 0.005 | alvocidib -0.188 | Tubastatin A 0.253 | [3] -0.025 | defactinib 0.048 | [9] 0.1 | [4] -0.051

DDR1 isoform 5 (UniProt Q08345)
inactive: epoxomicin -0.04 | [1] -0.009 | [6] -0.048 | [2] 0.129 | [8] -0.607 | alvocidib -0.115 | [3] -0.282 | defactinib -0.245 | [4] -0.069

DICER1 (UniProt Q9UPY3)
inactive: volasertib -0.033 | [5] 0.11 | epoxomicin -0.489 | [1] -0.043 | [6] 0.043 | [2] -0.206 | rosiglitazone 0.042 | [7] 0.166 | [8] 0.006 | saracatinib -0.126 | sotrastaurin 0.035 | alvocidib 0.161 | Tubastatin A 0.262 | [3] -0.097 | defactinib -0.095 | [9] -0.057 | [4] -0.087

DDX46, A0A0C4DG89
inactive: [5] -0.074 | epoxomicin 0.155

DDX10 (UniProt Q13206)
inactive: [1] 0.005 | [7] 0.147 | saracatinib -0.136 | [3] -0.103 | [9] -0.247

DENND1C (UniProt Q8IV53)
inactive: [1] -0.152 | [2] -0.014 | sotrastaurin -0.075 | [3] -0.154 | defactinib -0.018 | [4] 0.127

DGKA (UniProt P23743)
inactive: volasertib -0.505 | epoxomicin -0.025 | [1] -0.103 | [2] 0.239 | rosiglitazone 0 | [7] 0.102 | saracatinib -0.124 | sotrastaurin 0.168 | [3] -0.047 | defactinib -0.49 | [9] -0.079 | [4] -0.172

DGKE (UniProt P52429)
inactive: volasertib -0.146 | [5] 0.209 | [1] -0.022 | rosiglitazone 0.08 | sotrastaurin -0.136 | alvocidib 0.079 | Tubastatin A -0.062 | [3] 0.164

DET1 isoform 2 (UniProt Q7L5Y6)
inactive: volasertib -0.28 | alvocidib 0.032

DHX35 (UniProt Q9H5Z1)
inactive: [5] -0.226 | epoxomicin 0.056

DERL2 (UniProt Q9GZP9)
inactive: volasertib -0.029 | [5] -0.19 | epoxomicin 0.031 | [6] 0.17 | [2] 0.041 | rosiglitazone 0.12 | [7] -0.025 | [8] 0.02 | saracatinib 0.024 | sotrastaurin -0.01 | alvocidib -0.077 | Tubastatin A 0.062 | defactinib -0.063 | [9] 0.094 | [4] 0.07

DHX37 (UniProt Q8IY37)
inactive: epoxomicin -0.088 | [1] -0.129 | [3] 0.189

DHPS (UniProt M0R1T2)
inactive: sotrastaurin -0.06

DEAF1 (UniProt O75398)
inactive: [7] 0.142 | saracatinib -0.339 | [9] -0.001

DDX24 (UniProt Q9GZR7)
inactive: volasertib -0.193 | epoxomicin -0.271 | [6] 0.123 | [2] 0.831 | [7] 0.296 | [8] 0.291 | saracatinib -0.003 | sotrastaurin 0.055 | alvocidib 0.264 | Tubastatin A 0.392 | defactinib 0.082 | [9] -0.03 | [4] -0.051

Fetched one by one from the list above (2):
DICER1 (UniProt Q9UPY3)
inactive: volasertib -0.033 | [5] 0.11 | epoxomicin -0.489 | [1] -0.043 | [6] 0.043 | [2] -0.206 | rosiglitazone 0.042 | [7] 0.166 | [8] 0.006 | saracatinib -0.126 | sotrastaurin 0.035 | alvocidib 0.161 | Tubastatin A 0.262 | [3] -0.097 | defactinib -0.095 | [9] -0.057 | [4] -0.087

DGKA (UniProt P23743)
inactive: volasertib -0.505 | epoxomicin -0.025 | [1] -0.103 | [2] 0.239 | rosiglitazone 0 | [7] 0.102 | saracatinib -0.124 | sotrastaurin 0.168 | [3] -0.047 | defactinib -0.49 | [9] -0.079 | [4] -0.172

(next part)

DDB2 (UniProt Q92466)
inactive: volasertib 0.069 | [5] -0.014 | epoxomicin -0.033 | [1] -0.001 | [6] 0.089 | [2] -0.001 | rosiglitazone 0.084 | [7] 0.039 | [8] 0.013 | saracatinib 0.078 | sotrastaurin 0.254 | alvocidib -0.065 | Tubastatin A -0.047 | [3] -0.08 | defactinib 0.06 | [9] -0.048 | [4] 0.059

DMTF1 (UniProt Q9Y222)
inactive: volasertib -0.136 | [6] -0.455 | [2] 0.038 | [7] 0 | [8] -0.228 | saracatinib 0.018 | sotrastaurin 0.009 | alvocidib -0.016 | Tubastatin A 0 | defactinib -0.13 | [9] 0.017 | [4] 0.11

DHRSX (UniProt Q8N5I4)
inactive: [5] 0.027 | [1] -0.085 | [6] -0.013 | [2] 0.073 | rosiglitazone -0.176 | [8] 0.105 | alvocidib -0.048 | [3] -0.054 | defactinib -0.052 | [4] -0.017

DMBT1 isoform 6 (UniProt Q9UGM3)
inactive: [5] 0.955 | epoxomicin 0.439 | rosiglitazone -0.013 | sotrastaurin -0.007

DENND1A isoform 6 (UniProt Q8TEH3)
inactive: [2] 0.112 | Tubastatin A -0.018 | defactinib -0.081 | [4] -0.024
active: volasertib -0.856

DLG3 (UniProt Q92796)
inactive: volasertib -0.001 | [5] -0.078 | epoxomicin 0.057 | [1] -0.033 | [6] -0.022 | [2] 0.039 | rosiglitazone 0.08 | [7] -0.084 | [8] -0.105 | saracatinib 0.05 | sotrastaurin 0.048 | alvocidib -0.115 | Tubastatin A -0.055 | [3] -0.051 | defactinib 0.022 | [9] 0.021 | [4] -0.098

DDX11L8 (UniProt A8MPP1)
inactive: volasertib -0.103 | rosiglitazone -0.021 | [7] 0.2 | saracatinib 0.026 | alvocidib -0.066 | [9] 0.089

DDX11 (UniProt Q96FC9)
inactive: volasertib -0.084 | [5] 0.128 | epoxomicin 0.099 | [2] 0.098 | [7] -0.04 | saracatinib -0.016 | sotrastaurin -0.248 | Tubastatin A -0.034 | [3] -0.035 | defactinib -0.052 | [9] -0.005 | [4] 0.118

DECR1 (UniProt E5RJD2)
inactive: volasertib 0.039 | [5] -0.247 | [6] 0.06 | rosiglitazone -0.032 | [7] -0.047 | [8] -0.271 | saracatinib -0.048 | [9] -0.067

DEPDC5 (UniProt O75140)
inactive: [7] -0.154 | saracatinib -0.107 | [9] 0.069

DIEXF (UniProt Q68CQ4)
inactive: [2] 0.145 | [7] 0.172 | saracatinib -0.083 | alvocidib -0.027 | defactinib -0.252 | [9] 0.023 | [4] 0.038

DKK4 (UniProt Q9UBT3)
inactive: [6] -0.019 | [8] 0.665

DDX39B (UniProt H0Y400)
inactive: epoxomicin -0.141 | [1] 0.045 | [3] 0.086

DDHD1 (UniProt Q8NEL9)
inactive: volasertib -0.27 | [1] 0.13 | [6] 0.029 | rosiglitazone -0.006 | [7] 0.03 | [8] -0.303 | saracatinib -0.354 | sotrastaurin -0.032 | [3] 0.006 | [9] -0.159

DFFA isoform 2 (UniProt O00273)
inactive: [5] 0.001 | epoxomicin -0.061 | [1] -0.043 | rosiglitazone 0.062 | [7] -0.084 | saracatinib -0.149 | [3] -0.054 | [9] 0.034

DMXL2 isoform 3 (UniProt Q8TDJ6)
inactive: epoxomicin 0.011 | [1] -0.052 | [6] 0.159 | [2] -0.113 | rosiglitazone -0.091 | [7] 0.138 | [8] -0.308 | saracatinib -0.22 | sotrastaurin 0.133 | alvocidib 0.139 | Tubastatin A -0.001 | [3] -0.092 | defactinib 0.018 | [9] -0.039 | [4] 0.021

DDX52 (UniProt Q9Y2R4)
inactive: rosiglitazone -0.236 | [7] 0.31 | saracatinib -0.263 | alvocidib 0.261 | [9] -0.138

DIRAS1 (UniProt O95057)
inactive: Tubastatin A 0.115

DDX28 (UniProt Q9NUL7)
inactive: alvocidib 0.165

DMTN isoform 2 (UniProt Q08495)
inactive: [5] 0.099 | rosiglitazone -0.037 | Tubastatin A 0.149
